Experimental data taken from the supplement of paper PMC12819154, “High-throughput peptide-centric local stability assay extends protein–ligand identification to membrane proteins, tissues and bacteria” (Nature Structural & Molecular Biology, 2025).
The list shows a part of the results. Most entries show no effect beyond the scatter of the controls.

Sequences of proteins named here, by UniProt entry; tags and fusion partners are left off. A change or cut given only in a name is not applied to a line headed by its entry.
UniProt Q99961: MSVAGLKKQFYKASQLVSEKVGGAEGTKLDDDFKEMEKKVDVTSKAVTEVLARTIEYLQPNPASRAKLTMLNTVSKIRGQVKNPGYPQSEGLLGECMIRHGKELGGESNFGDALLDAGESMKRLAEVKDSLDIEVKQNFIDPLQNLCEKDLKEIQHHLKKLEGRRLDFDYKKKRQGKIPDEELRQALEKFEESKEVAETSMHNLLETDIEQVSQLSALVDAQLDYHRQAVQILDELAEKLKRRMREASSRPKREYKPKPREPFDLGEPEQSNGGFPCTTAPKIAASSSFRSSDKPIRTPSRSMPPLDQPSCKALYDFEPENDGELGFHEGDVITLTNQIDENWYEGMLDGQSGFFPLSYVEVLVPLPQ
UniProt Q99741: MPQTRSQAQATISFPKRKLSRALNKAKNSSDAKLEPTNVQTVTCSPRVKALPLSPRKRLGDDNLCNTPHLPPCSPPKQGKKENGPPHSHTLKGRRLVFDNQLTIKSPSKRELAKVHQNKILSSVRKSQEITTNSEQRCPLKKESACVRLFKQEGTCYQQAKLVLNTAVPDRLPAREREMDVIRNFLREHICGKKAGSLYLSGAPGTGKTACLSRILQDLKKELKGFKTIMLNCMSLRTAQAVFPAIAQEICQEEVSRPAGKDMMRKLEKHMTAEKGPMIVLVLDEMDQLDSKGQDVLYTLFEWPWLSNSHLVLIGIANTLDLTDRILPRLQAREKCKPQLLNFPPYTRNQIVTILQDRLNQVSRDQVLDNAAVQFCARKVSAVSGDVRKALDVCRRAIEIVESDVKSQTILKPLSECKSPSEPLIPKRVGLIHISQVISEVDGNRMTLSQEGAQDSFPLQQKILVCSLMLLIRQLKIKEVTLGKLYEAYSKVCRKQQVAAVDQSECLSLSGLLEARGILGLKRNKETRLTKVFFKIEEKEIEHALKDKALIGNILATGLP
UniProt Q99622: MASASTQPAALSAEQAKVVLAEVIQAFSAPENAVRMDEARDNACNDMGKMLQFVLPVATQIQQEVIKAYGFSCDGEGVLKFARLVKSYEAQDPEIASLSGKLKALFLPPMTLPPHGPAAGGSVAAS
UniProt Q9BUL5: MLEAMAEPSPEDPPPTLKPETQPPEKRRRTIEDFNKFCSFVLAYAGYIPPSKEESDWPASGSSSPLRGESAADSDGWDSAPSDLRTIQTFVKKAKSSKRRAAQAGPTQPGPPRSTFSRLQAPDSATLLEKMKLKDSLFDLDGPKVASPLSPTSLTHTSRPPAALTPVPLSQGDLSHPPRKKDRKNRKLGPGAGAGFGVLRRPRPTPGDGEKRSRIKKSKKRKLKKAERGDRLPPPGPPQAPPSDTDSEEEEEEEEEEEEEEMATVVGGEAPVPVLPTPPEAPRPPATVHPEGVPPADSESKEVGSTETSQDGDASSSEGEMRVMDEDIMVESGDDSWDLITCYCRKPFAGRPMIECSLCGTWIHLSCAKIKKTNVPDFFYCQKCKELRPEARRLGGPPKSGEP
UniProt Q9BQC3: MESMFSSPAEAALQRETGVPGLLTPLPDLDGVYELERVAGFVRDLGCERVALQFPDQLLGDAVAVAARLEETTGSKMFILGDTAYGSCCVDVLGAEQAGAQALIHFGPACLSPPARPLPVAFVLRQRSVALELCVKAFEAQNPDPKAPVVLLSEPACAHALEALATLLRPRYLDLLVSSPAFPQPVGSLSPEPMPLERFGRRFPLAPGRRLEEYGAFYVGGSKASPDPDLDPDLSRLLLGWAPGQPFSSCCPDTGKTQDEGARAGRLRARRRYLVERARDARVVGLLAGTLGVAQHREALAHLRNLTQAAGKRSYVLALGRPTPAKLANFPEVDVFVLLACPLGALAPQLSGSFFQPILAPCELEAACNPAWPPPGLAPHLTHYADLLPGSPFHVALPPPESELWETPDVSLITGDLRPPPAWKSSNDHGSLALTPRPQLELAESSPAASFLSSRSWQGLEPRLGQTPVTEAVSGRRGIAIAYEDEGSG
UniProt Q99766: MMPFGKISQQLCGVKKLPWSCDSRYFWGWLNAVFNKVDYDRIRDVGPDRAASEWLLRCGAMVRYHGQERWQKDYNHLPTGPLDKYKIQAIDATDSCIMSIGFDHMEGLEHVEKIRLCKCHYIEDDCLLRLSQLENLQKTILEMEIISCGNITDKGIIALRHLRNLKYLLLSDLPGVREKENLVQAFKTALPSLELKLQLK
UniProt Q9BRQ0: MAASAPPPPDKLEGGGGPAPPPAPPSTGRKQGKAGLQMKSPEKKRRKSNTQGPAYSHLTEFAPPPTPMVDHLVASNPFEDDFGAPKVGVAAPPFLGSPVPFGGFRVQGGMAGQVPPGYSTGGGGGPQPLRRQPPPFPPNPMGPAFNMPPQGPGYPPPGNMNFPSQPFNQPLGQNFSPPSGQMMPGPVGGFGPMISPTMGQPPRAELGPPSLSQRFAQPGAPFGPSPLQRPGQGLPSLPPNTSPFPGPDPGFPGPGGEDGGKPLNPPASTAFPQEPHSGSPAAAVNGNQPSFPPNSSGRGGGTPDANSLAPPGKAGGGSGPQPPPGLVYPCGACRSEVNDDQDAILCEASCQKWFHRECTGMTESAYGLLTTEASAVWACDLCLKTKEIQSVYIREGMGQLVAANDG
UniProt Q9BV20: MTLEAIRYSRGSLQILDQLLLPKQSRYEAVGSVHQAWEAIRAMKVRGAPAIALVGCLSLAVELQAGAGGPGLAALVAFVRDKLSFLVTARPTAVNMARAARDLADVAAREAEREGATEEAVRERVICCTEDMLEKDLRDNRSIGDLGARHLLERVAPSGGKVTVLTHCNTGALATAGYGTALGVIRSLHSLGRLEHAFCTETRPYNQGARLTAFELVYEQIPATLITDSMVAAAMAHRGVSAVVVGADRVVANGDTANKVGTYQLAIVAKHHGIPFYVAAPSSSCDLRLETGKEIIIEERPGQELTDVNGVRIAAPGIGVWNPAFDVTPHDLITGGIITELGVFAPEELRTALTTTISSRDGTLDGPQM
UniProt Q9BVL2: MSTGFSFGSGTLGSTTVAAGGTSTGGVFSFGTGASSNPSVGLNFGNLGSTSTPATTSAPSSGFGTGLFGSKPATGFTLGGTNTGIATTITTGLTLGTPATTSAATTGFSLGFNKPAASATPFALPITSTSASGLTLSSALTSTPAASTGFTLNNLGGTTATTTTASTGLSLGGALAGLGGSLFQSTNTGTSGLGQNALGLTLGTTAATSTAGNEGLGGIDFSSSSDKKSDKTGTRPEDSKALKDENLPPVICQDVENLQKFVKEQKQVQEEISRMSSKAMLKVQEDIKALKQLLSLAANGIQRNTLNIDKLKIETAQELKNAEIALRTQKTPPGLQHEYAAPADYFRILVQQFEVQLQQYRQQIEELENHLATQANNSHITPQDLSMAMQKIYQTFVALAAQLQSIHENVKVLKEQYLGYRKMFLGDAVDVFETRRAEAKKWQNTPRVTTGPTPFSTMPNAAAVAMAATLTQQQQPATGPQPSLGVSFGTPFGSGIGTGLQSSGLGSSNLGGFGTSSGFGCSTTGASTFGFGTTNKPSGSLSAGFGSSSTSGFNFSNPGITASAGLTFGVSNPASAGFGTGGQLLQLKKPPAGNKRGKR
UniProt Q9BQ89: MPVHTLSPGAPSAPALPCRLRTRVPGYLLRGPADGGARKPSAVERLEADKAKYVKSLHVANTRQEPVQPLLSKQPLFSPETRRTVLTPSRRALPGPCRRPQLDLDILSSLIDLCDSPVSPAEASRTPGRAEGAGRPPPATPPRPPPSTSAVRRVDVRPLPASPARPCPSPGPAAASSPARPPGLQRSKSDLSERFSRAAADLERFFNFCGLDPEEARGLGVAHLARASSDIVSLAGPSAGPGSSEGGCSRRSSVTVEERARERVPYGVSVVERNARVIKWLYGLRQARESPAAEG
UniProt Q9BRQ8: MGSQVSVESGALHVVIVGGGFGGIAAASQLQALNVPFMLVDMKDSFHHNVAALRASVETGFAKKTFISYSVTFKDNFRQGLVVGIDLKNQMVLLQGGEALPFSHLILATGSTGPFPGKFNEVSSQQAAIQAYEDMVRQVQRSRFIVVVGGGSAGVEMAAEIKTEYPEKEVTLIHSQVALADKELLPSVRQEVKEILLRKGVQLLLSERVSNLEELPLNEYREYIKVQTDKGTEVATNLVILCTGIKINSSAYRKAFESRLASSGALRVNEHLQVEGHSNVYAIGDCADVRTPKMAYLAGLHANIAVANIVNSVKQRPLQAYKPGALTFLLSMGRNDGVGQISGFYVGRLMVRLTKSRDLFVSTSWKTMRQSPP
UniProt Q9BTE6: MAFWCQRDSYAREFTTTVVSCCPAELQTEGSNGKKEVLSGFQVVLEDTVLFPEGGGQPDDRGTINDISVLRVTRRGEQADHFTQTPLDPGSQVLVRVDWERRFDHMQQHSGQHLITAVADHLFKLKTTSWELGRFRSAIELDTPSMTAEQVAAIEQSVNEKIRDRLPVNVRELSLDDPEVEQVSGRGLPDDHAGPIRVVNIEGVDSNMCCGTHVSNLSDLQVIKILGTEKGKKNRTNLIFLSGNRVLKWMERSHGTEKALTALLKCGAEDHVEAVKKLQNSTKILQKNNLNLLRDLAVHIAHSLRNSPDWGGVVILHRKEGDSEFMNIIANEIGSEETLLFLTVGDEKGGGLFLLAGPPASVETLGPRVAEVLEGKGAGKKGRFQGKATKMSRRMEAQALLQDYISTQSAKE
UniProt Q9BPY3: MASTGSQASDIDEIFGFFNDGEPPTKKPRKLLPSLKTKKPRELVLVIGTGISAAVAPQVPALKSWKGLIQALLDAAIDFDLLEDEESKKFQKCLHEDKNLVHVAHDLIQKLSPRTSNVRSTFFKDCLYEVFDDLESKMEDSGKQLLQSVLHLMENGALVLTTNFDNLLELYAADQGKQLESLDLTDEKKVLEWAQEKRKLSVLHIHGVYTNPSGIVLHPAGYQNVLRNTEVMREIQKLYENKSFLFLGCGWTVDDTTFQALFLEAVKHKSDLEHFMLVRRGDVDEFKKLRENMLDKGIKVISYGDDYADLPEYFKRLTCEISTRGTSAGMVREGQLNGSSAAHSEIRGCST
UniProt Q9BTT0: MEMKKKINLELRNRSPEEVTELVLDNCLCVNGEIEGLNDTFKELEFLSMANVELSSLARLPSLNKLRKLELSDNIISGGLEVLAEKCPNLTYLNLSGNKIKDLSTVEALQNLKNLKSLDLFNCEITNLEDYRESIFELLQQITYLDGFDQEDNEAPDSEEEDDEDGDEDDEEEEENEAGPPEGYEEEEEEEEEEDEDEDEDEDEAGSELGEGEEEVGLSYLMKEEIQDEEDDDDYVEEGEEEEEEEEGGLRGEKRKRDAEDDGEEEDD
UniProt Q99856: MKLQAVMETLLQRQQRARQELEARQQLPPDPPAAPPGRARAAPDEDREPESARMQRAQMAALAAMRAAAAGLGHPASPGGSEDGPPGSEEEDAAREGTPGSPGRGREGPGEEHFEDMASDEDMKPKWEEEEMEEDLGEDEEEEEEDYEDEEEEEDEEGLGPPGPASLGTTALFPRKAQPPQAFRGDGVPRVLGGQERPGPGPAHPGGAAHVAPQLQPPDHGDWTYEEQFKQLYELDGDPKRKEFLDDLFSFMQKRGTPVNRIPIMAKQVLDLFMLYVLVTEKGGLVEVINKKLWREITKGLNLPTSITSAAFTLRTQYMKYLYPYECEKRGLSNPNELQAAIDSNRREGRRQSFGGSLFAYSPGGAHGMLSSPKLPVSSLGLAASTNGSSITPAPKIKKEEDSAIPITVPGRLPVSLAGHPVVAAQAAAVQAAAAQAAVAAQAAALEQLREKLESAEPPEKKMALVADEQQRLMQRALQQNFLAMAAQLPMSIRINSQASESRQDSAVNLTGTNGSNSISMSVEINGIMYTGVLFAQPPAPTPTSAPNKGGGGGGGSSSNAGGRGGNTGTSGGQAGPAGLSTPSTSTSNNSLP
UniProt Q99829: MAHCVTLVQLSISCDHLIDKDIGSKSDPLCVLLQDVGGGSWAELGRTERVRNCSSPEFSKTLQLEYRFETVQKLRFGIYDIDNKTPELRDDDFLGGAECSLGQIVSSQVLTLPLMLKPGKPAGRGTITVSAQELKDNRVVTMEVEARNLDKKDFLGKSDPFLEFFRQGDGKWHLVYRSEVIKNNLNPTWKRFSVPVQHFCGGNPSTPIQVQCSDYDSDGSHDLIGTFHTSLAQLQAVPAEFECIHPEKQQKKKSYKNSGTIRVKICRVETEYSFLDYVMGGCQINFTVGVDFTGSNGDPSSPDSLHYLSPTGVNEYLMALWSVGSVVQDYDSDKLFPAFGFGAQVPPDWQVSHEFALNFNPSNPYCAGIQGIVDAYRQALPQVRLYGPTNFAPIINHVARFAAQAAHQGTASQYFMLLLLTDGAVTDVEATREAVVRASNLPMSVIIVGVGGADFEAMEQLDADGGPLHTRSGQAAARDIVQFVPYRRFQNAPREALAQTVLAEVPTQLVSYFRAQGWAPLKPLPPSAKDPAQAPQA
UniProt Q9BUL9: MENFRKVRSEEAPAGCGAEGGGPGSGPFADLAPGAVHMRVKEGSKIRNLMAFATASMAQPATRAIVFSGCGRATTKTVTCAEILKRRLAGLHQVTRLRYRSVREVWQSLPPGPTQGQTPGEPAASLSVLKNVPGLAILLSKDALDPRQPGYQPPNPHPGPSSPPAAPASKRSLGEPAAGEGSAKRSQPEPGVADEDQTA

compound: CN[C@@H]1C[C@H]2O[C@@](C)([C@@H]1OC)n1c3ccccc3c3c4c(c5c6ccccc6n2c5c31)C(=O)NC4 [staurosporine]; experiment: log2 fold change of tryptic peptide abundance, ligand vs vehicle (limited proteolysis) (log2 ratio); higher = more trypsin-susceptible (destabilized); conditions: ligand concentration: 20 uM; sample: K562 cleared lysate; digestion: 4 min, 22 C (HT-PELSA RT4min, Orbitrap Astral)

| Target | log2 fold change |
| --- | --- |
| SH3GL1 (peptide sequence: DSLDIEVK, peptide start residue: 129) (UniProt Q99961) | -0.0871 |
| UniProt Q9BTX1 (peptide sequence: VSSSYPVEPK, peptide start residue: 393) | -0.0846 |
| CDC6 (peptide sequence: AIEIVESDVK, peptide start residue: 397) (UniProt Q99741) | -0.426 |
| C12orf57 (peptide sequence: SYEAQDPEIASLSGK, peptide start residue: 87) (UniProt Q99622) | -0.317 |
| UniProt Q9BVG3 (peptide sequence: TFAEPALAPSLK, peptide start residue: 56) | 0.317 |
| PHF23 (peptide sequence: RTIEDFNK, peptide start residue: 29) (UniProt Q9BUL5) | 0.587 |
| DPH2 (peptide sequence: LGQTPVTEAVSGR, peptide start residue: 464) (UniProt Q9BQC3) | 0.108 |
| UniProt Q99766 (peptide sequence: AASEWLLR, peptide start residue: 65) | 0.256 |
| PYGO2 (peptide sequence: EGMGQLVAANDG, peptide start residue: 395) (UniProt Q9BRQ0) | -0.459 |
| MRI1 (peptide sequence: DKLSFLVTARPTAVNMAR, peptide start residue: 81) (UniProt Q9BV20) | 0.254 |
| FEM1A (peptide sequence: TAYELLDEK, peptide start residue: 616) (UniProt Q9BSK4) | -0.247 |
| HTATIP2 (peptide sequence: VDRDYVLK, peptide start residue: 107) (UniProt Q9BUP3) | 0.25 |
| UniProt Q9BVL2 (peptide sequence: KMFLGDAVDVFETRR, peptide start residue: 422) | 0.972 |
| C7orf25 (peptide sequence: QTLVVDVVANGGHTWVK, peptide start residue: 102) (UniProt Q9BPX7) | 0.195 |
| TBCD (peptide sequence: LGLTFLKPK, peptide start residue: 304) (UniProt Q9BTW9) | -0.234 |
| FAM110A (peptide sequence: GLGVAHLAR, peptide start residue: 218) (UniProt Q9BQ89) | 0.324 |
| AIFM2 (peptide sequence: SRDLFVSTSWK, peptide start residue: 356) (UniProt Q9BRQ8) | 0.266 |
| AARSD1 (peptide sequence: EFTTTVVSCCPAELQTEGSNGKK, peptide start residue: 13) (UniProt Q9BTE6) | 0.37 |

8 neighbouring records from above:

| Target | log2 fold change |
| --- | --- |
| UniProt Q9BVG3 (peptide sequence: TFAEPALAPSLK, peptide start residue: 56) | 0.317 |
| PHF23 (peptide sequence: RTIEDFNK, peptide start residue: 29) (UniProt Q9BUL5) | 0.587 |
| DPH2 (peptide sequence: LGQTPVTEAVSGR, peptide start residue: 464) (UniProt Q9BQC3) | 0.108 |
| UniProt Q99766 (peptide sequence: AASEWLLR, peptide start residue: 65) | 0.256 |
| PYGO2 (peptide sequence: EGMGQLVAANDG, peptide start residue: 395) (UniProt Q9BRQ0) | -0.459 |
| MRI1 (peptide sequence: DKLSFLVTARPTAVNMAR, peptide start residue: 81) (UniProt Q9BV20) | 0.254 |
| FEM1A (peptide sequence: TAYELLDEK, peptide start residue: 616) (UniProt Q9BSK4) | -0.247 |
| HTATIP2 (peptide sequence: VDRDYVLK, peptide start residue: 107) (UniProt Q9BUP3) | 0.25 |

Following part:

| Target | log2 fold change |
| --- | --- |
| SPATA5L1 (peptide sequence: DLALYENLFK, peptide start residue: 734) (UniProt Q9BVQ7) | 0.278 |
| UniProt Q99879 (peptide sequence: HAVSEGTKAVTKYTSSK, peptide start residue: 110) | 0.229 |
| BCL7B (peptide sequence: WVTVGDTSLR, peptide start residue: 35) (UniProt Q9BQE9) | -0.0312 |
| FAM118B (peptide sequence: VLEWAQEK, peptide start residue: 190) (UniProt Q9BPY3) | 0.141 |
| ARHGAP9 (peptide sequence: LCIAAVDKR, peptide start residue: 561) (UniProt Q9BRR9) | 0.798 |
| UniProt Q9BUV8 (peptide sequence: KEEPPQPQLANGALK, peptide start residue: 7) | 0.333 |
| ANP32E (peptide sequence: KKINLELR, peptide start residue: 5) (UniProt Q9BTT0) | 0.293 |
| ARID3A (peptide sequence: ARQELEAR, peptide start residue: 17) (UniProt Q99856) | 0.187 |
| TSG101 (peptide sequence: AQAELNALKR, peptide start residue: 249) (UniProt Q99816) | 0.209 |
| POLR3GL (peptide sequence: TTEDKEETIQK, peptide start residue: 140) (UniProt Q9BT43) | -0.121 |
| UniProt Q9BUH6 (peptide sequence: FGLSAAEDITPR, peptide start residue: 64) | 0.239 |
| BUD13 (peptide sequence: EMQKPLAR, peptide start residue: 517) (UniProt Q9BRD0) | 0.425 |
| UniProt Q99973 (peptide sequence: DPGVLSFLR, peptide start residue: 2432) | -0.612 |
| CPNE1 (peptide sequence: DFLGKSDPFLEFFR, peptide start residue: 153) (UniProt Q99829) | -0.227 |
| TIPIN (peptide sequence: LQFEDFIDRVEYLGSKK, peptide start residue: 118) (UniProt Q9BVW5) | 0.253 |
| RBM4B (peptide sequence: VADFTEQYNEQYGAVR, peptide start residue: 183) (UniProt Q9BQ04) | -0.244 |
| RPP25 (peptide sequence: RSLGEPAAGEGSAK, peptide start residue: 171) (UniProt Q9BUL9) | 0.38 |
| NOC4L (peptide sequence: EYLDYDDTR, peptide start residue: 173) (UniProt Q9BVI4) | 0.278 |
